Results deposited as PubChem BioAssay AID504808 (Drosophila RNAi Screening Center, 2011).

- Purpose: 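Chromatin factors that keep E2F targets switched off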 (primary screen)
- Cell system: Drosophila S2 cells
- Knock-down reagent: long dsRNA against Drosophila genes
- Detection: 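Firefly luciferase driven by E2F sites, normalised to Renilla luciferase on the same minimal promoter, measured by plate reader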
- Reading the numbers: E2F firefly: higher = more E2F reporter activity; Renilla normaliser: higher = more normaliser reporter signal
- Rule for the call: 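a knock-down counted as active when the firefly/Renilla E2F signal rose above 50%, a threshold chosen arbitrarily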
In all, the deposit lists about 21,000 reagents; below is an unselected part of those that have a named target and a result. Over the whole deposit, 18 (0.084%) are marked active. 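Raw counts without plate normalisation, one of two replicates; the ratio scores behind the calls were not deposited.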 No sequences are given here. Not stated in the record: the amount of reagent, the time to read-out.

| gene knocked down | DRSC id | E2F firefly, rep 1 | Renilla normaliser, rep 1 | activity call |
| --- | --- | --- | --- | --- |
| Cad96Cb | DRSC14243 | 1.00e5 | 5972 | inactive |
| Cad96Cb | DRSC14665 | 1.03e5 | 5745 | inactive |
| CG34375 | DRSC14684 | 1.09e5 | 5586 | inactive |
| CG34375 | DRSC14685 | 96824 | 5162 | inactive |
| CtsL4 | DRSC02849 | 1.42e5 | 5428 | inactive |
| AlaRS-m | DRSC09660 | 80124 | 3397 | inactive |
| Neb-cGP | DRSC17991 | 1.32e5 | 6108 | inactive |
| dpr9 | DRSC14534 | 73844 | 3554 | inactive |
| dpr9 | DRSC14985 | 1.07e5 | 5849 | inactive |
| dpr9 | DRSC14986 | 1.37e5 | 6571 | inactive |
| Nepl12 | DRSC16411 | 1.51e5 | 6079 | inactive |
| CG1806 | DRSC19787 | 7746 | 812 | inactive |
| CG8516 | DRSC16437 | 1.39e5 | 7751 | inactive |
| Uba4 | DRSC02194 | 1.44e5 | 4931 | inactive |
| E2f2 | DRSC03320 | 71310 | 3540 | inactive |
| mTTF | DRSC01909 | 91770 | 4835 | inactive |
| dy | DRSC20325 | 81329 | 4590 | inactive |
| yki | DRSC04437 | 85695 | 3838 | inactive |
| CG14086 | DRSC10090 | 1.32e5 | 6952 | inactive |
| dj | DRSC12625 | 1.27e5 | 5920 | inactive |
| bsh | DRSC03498 | 54037 | 3374 | inactive |
| CG7294 | DRSC03041 | 1.34e5 | 4609 | inactive |
| mei-W68 | DRSC07649 | 1.61e5 | 5706 | inactive |
| CG10912 | DRSC06009 | 70122 | 3043 | inactive |
| hwt | DRSC19386 | 44116 | 3480 | inactive |
| CG4408 | DRSC15574 | 69463 | 2497 | inactive |
| spd-2 | DRSC09682 | 92983 | 3927 | inactive |
| Lcp1Psi | DRSC05105 | 1.41e5 | 4902 | inactive |
| CG5122 | DRSC02816 | 1.03e5 | 4759 | inactive |
| CG31957 | DRSC00207 | 1.35e5 | 5842 | inactive |
| CG31082 (retired record) | DRSC13775 | 77218 | 2603 | inactive |
| Ipk1 | DRSC04235 | 84936 | 3578 | inactive |
| Ipk1 | DRSC04236 | 1.05e5 | 4709 | inactive |
| Ipk1 | DRSC04237 | 96203 | 4221 | inactive |
| Ptp61F | DRSC08683 | 89549 | 4541 | inactive |
| Cyp6a8 | DRSC07384 | 3007 | 187 | inactive |
| NP15.6 | DRSC16756 | 1.36e5 | 6030 | inactive |
| CG11570 | DRSC09844 | 1.21e5 | 6803 | inactive |
| CG16711 | DRSC10220 | 1.10e5 | 6309 | inactive |
| CG14323 | DRSC14802 | 99321 | 5427 | inactive |
| AGO2 | DRSC09999 | 1.26e5 | 9947 | inactive |
| AGO2 | DRSC10847 | 76753 | 5254 | inactive |
| PCNA | DRSC07653 | 72455 | 3084 | inactive |
| Vps15 | DRSC16553 | 69974 | 3248 | inactive |
| CG34370 | DRSC03913 | 1.28e5 | 5805 | inactive |
| CG34370 | DRSC04142 | 1.10e5 | 4388 | inactive |
| CG34370 | DRSC04143 | 93528 | 4005 | inactive |
| CG34370 | DRSC04144 | 90989 | 4221 | inactive |
| Ttd14 | DRSC06632 | 63178 | 3164 | inactive |
| Ttd14 | DRSC06942 | 1.41e5 | 4766 | inactive |
| noi | DRSC12383 | 58564 | 3892 | inactive |
| hook | DRSC03545 | 84337 | 4436 | inactive |
| Alms1a | DRSC18558 | 1.01e5 | 5488 | inactive |
| gbb | DRSC04687 | 1.03e5 | 3936 | inactive |
| Cyfip | DRSC15679 | 84122 | 3900 | inactive |
| CG14200 | DRSC19555 | 76291 | 90 | inactive |
| shtd | DRSC20166 | 8141 | 800 | inactive |

Laid out differently: results already given.
gene knocked down | DRSC id | E2F firefly, rep 1 | Renilla normaliser, rep 1 | activity call
CG34370 | DRSC04142 | 1.10e5 | 4388 | inactive
CG34370 | DRSC04143 | 93528 | 4005 | inactive
CG34370 | DRSC04144 | 90989 | 4221 | inactive
Ttd14 | DRSC06632 | 63178 | 3164 | inactive
Ttd14 | DRSC06942 | 1.41e5 | 4766 | inactive
